# Source: PubChem BioAssay AID504444 (National Center for Advancing Translational Sciences (NCATS), 2011)
# The whole screen tested about 360,000 compounds, of which about 7,500 (2.1%) were called active. Inconclusive means that the source gave no clear call. Such entries were picked first, then a sample of the others. Calls come from the whole dose curve; as a rule, active = well fitted inhibition curve with a large enough effect; inconclusive = small, poorly fitted or top-dose-only effect, or effect the other way; inactive = flat fitted curve, though single readings scatter. Potencies beside an inconclusive call are fits to weak or partial responses and may not hold up.
# Assay: Nrf2 qHTS screen for inhibitors; note: nearly all actives have a fitted effect of over 60% in size
# Conditions: A549 ARE-Fluc reporter, luciferase luminescence, 18-24 h; series mostly up to 46 µM
# How it was run: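 Nrf2 function is reported as luminescence of an ARE-controlled luciferase in A549 cells. Compounds were tested at several concentrations, and a CellTiter-Fluor read on the same wells flagged cytotoxicity.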
# Potency is the fitted concentration of half-maximal effect.
row,SMILES,Potency
1,Cc1cc(C(=O)OC(C)C(=O)Nc2nc(-c3ccccc3)cs2)c(C)o1 (configuration not stated),"inconclusive: 25.9 µM [activator, single point]"
2,Nc1ccc2c(c1)Cc1c(F)cccc1-2,"inconclusive: 10.3 µM [activator, partial curve]"
3,COc1ccc(N(C)S(=O)(=O)c2ccc(Cl)c(C(=O)NCCc3ccc(Cl)cc3)c2)cc1,"inconclusive: 23.1 µM [falling, single point]"
4,Clc1ccccc1-c1nnc(-c2ccccc2CNc2ccc(Br)cc2)o1,"inconclusive: 4.11 µM [activator, full curve, poor fit]"
5,O=[N+]([O-])/C=C\c1ccc(N2CCCC2)c(F)c1,"inconclusive: 29.1 µM [activator, single point]"
6,Cc1nc(-c2ccc(Cl)cc2)sc1C1(C)CC(c2cccc(F)c2)=NO1 (configuration not stated),"inconclusive: 14.6 µM [activator, single point]"
7,Cc1cc(C)cc(NC(=O)c2cnn(-c3ccc(C)c(C)c3)c2C2CCNCC2)c1,"inconclusive: 29.1 µM [activator, single point]"
8,O=C(c1ccncc1)N(c1ccc2oc3c(c2c1)CCCC3)S(=O)(=O)c1ccc(F)cc1,"inconclusive: 29.1 µM [falling, single point]"
9,O=C(CCC(=O)N1CCSc2ccccc21)NCc1ccccc1Cl,inactive
10,O=C(NCC1CCCO1)c1c(O)c2cccc3c2n(c1=O)CCC3 (configuration not stated),"inconclusive: 29.1 µM [falling, single point]"
11,CN(CC(=O)Nc1ccc(Cl)cc1)C(=O)c1ccc(N2CCCC2=O)cc1,inactive
12,O=c1c2ccccc2oc2ccc(-c3ccc4[nH]ccc4c3)cc12,"inconclusive: 5.17 µM [activator, single point]"
13,CCOc1ccc(S(=O)(=O)N2CCCC(C(=O)N3CCC(C(N)=O)CC3)C2)cc1Cl (configuration not stated),"inconclusive: 23.1 µM [falling, partial curve, poor fit]"
14,c1ccc(-c2nc3nonc3nc2-c2ccccc2)cc1,"inconclusive: 29.1 µM [falling, single point]"
15,Cc1cc(OCC(=O)N(C)Cc2ccccc2)cc(C)c1Cl,inactive
16,O=C(Nc1ccc(C(=O)N2CCCCC2)cc1)c1cccs1,"inconclusive: 4.61 µM [activator, full curve]"
17,Cc1c(/C=N/NC(=O)c2cccs2)c2ccccc2n1Cc1ccccc1Cl,"inconclusive: 4.61 µM [activator, single point]"
18,COc1ccc(S(=O)(=O)N2CCCCC2)cc1NC(=S)Nc1cccc(Cl)c1C,"inconclusive: 7.31 µM [falling, partial curve, poor fit]"
19,Cn1ncc(Br)c1C(=O)Nc1ccc(F)cc1F,"inconclusive: 1.3 µM [activator, partial curve, poor fit]"
20,C/C(=N\Nc1ccc(C(=O)O)cc1)c1ccc(S(=O)(=O)NCc2ccco2)cc1,"inconclusive: 29.1 µM [activator, single point]"
21,CC(Oc1ccc2c3c(c(=O)oc2c1)CCC3)C(=O)NCc1cccnc1 (configuration not stated),inactive

# Rewritten tab-delimited: 8 of the compounds above
row	SMILES	Potency
4	Clc1ccccc1-c1nnc(-c2ccccc2CNc2ccc(Br)cc2)o1	inconclusive: 4.11 µM [activator, full curve, poor fit]
5	O=[N+]([O-])/C=C\c1ccc(N2CCCC2)c(F)c1	inconclusive: 29.1 µM [activator, single point]
6	Cc1nc(-c2ccc(Cl)cc2)sc1C1(C)CC(c2cccc(F)c2)=NO1 (configuration not stated)	inconclusive: 14.6 µM [activator, single point]
7	Cc1cc(C)cc(NC(=O)c2cnn(-c3ccc(C)c(C)c3)c2C2CCNCC2)c1	inconclusive: 29.1 µM [activator, single point]
8	O=C(c1ccncc1)N(c1ccc2oc3c(c2c1)CCCC3)S(=O)(=O)c1ccc(F)cc1	inconclusive: 29.1 µM [falling, single point]
9	O=C(CCC(=O)N1CCSc2ccccc21)NCc1ccccc1Cl	inactive
10	O=C(NCC1CCCO1)c1c(O)c2cccc3c2n(c1=O)CCC3 (configuration not stated)	inconclusive: 29.1 µM [falling, single point]
11	CN(CC(=O)Nc1ccc(Cl)cc1)C(=O)c1ccc(N2CCCC2=O)cc1	inactive

# Continued:

row,SMILES,Potency
1,O=C(NCc1ccccc1)c1csc(-c2cccnc2)n1,"inconclusive: 14.6 µM [falling, partial curve, poor fit]"
2,Nc1c(C(=O)N2CCCC2)sc2nc(-c3ccccc3)ccc12,"inconclusive: 20.6 µM [activator, partial curve]"
3,COc1ccc(C2Nc3ccc(Cl)cc3C(=O)N2Cc2ccccc2)cc1COc1ccc(NC(C)=O)cc1 (configuration not stated),"inconclusive: 6.51 µM [activator, single point]"
4,CCc1ccc(S(=O)(=O)Nc2ccc(-c3ccc4nncn4n3)cc2)s1,"inconclusive: 25.9 µM [falling, partial curve, poor fit]"
5,O=C(NCc1ccc(F)cc1)c1ccc(Cn2c(SCc3ccc(F)cc3)nc3cccnc32)cc1,inactive
6,Cc1nn(-c2ccccc2)c(C)c1C(=O)OC(C)C(=O)NC1CCCCC1 (configuration not stated),active: 18.4 µM
7,COc1ccc(Nc2cnn(-c3nc4ccccc4s3)c(=O)c2Cl)cc1,"inconclusive: 0.411 µM [activator, full curve]"
8,COc1ccc(Cl)cc1NC(=O)CN(C)C(=O)c1ccc(COc2ccccc2)cc1,"inconclusive: 29.1 µM [falling, single point]"
9,O=C(c1ccccc1)c1coc(-c2ccccc2)c1,"inconclusive: 1.84 µM [activator, full curve, poor fit]"
10,CC(C)Cn1c(=O)c2ccccc2n2c(CCC(=O)NCc3ccc(Cl)cc3)nnc12,inactive
11,CC(=O)c1ccccc1NC(=O)c1ccc(OCc2c(C)noc2C)cc1,active: 13 µM
12,O=S(=O)(O)c1c(NS(=O)(=O)c2ccccc2)ccc2ccccc12,inactive
13,Cc1ccc(S(=O)(=O)Nc2cccc3cccnc23)cc1,active: 6.51 µM
14,CCCN1C(=O)c2[nH]nc(-c3cccc(OC)c3)c2C1c1ccccn1 (configuration not stated),inactive
15,CN(c1cccc(NC(=O)CN(c2ccc(Cl)c(Cl)c2)S(=O)(=O)c2ccccc2)c1)S(C)(=O)=O,"inconclusive: 20.6 µM [falling, single point]"
16,O=C(Nc1ccc(Br)cc1)c1cc(-c2ccncc2)nc2ccccc12,"inconclusive: 16.4 µM [activator, partial curve]"
17,COc1ccc(-c2nnc(SCc3cccc(C#N)c3)o2)cc1,"inconclusive: 11.6 µM [falling, partial curve, poor fit]"
18,O=S(=O)(c1cccc2cccnc12)N1CCN(c2ccccn2)CC1,"inconclusive: 16.4 µM [falling, partial curve, poor fit]"
19,COc1ccc(CC(=O)N2CCN(c3cccc(Cl)c3)CC2)cc1OC,"inconclusive: 18.4 µM [falling, partial curve, poor fit]"
20,CS(=O)(=O)c1ccc(C(=O)OCC(=O)NC2CCS(=O)(=O)C2)cc1[N+](=O)[O-] (configuration not stated),inactive
21,CC(C)(C)c1ccc(-n2nc(C(N)=O)c(O)cc2=O)cc1,"inconclusive: 13 µM [falling, partial curve, poor fit]"
